{"source": "the supplement of paper PMC4683952", "note": "This is one part of the list. Rule as the data show it: active = 2 or more and inactive = the rest. Single values are uncertain here, since repeats match poorly."}
{"test_system": "Lgr5 (MarsCy1-Lgr5-EGFP, U2OS)", "experiment": "cell-surface Lgr5 expression (SCi1 fluorescence, background-subtracted) relative to WT DMSO (fold of DMSO control); higher = more Lgr5 at the plasma membrane", "settings": "U2OS MarsCy1-Lgr5-EGFP stable; treatment time: overnight; library: ActiProbe-5K (TimTec); 25 µM"}
{"compound": "Clc1ccc(OCc2cn3ccccc3n2)c2ncccc12", "cell-surface Lgr5 expression": "inactive: 1.12"}
{"compound": "O=S(=O)(c1ccc2c(c1)OCCO2)N1CCCCC1", "cell-surface Lgr5 expression": "inactive: 1.04"}
{"compound": "CC(C)(C)C1CCc2c(sc3c2C(=O)NC(c2ccco2)N3)C1", "note": "(centres undefined)", "cell-surface Lgr5 expression": "inactive: 0.986"}
{"compound": "NC(=O)Cn1cc([N+](=O)[O-])cn1", "cell-surface Lgr5 expression": "inactive: 1.37"}
{"compound": "O=C(O)C1CSC(c2ccco2)N1", "note": "(centres undefined)", "cell-surface Lgr5 expression": "inactive: 1.01"}
{"compound": "C1(=C(\\C#N)C#N)/C(C2=CCCCC2)CCCC1", "note": "(centres undefined)", "cell-surface Lgr5 expression": "inactive: 1.35"}
{"compound": "CC(C)(C)C1CC=C2[C@H](C1)[C@@H](c1ccsc1)C(C#N)=C(N)C2(C#N)C#N", "note": "(some centres undefined)", "cell-surface Lgr5 expression": "inactive: 1.3"}
{"compound": "Brc1ccc(/C=N\\c2cccc3ccccc23)s1", "cell-surface Lgr5 expression": "inactive: 0.79"}
{"compound": "O=[N+]([O-])c1ccc(/C=N/N(CCO)C2=NS(=O)(=O)c3ccccc32)o1", "cell-surface Lgr5 expression": "inactive: 0.626"}
{"compound": "c1ccc(Sc2ncnc3c2oc2ccccc23)cc1", "cell-surface Lgr5 expression": "inactive: 1.19"}
{"compound": "COc1nsc(SC)c1C(N)=O", "cell-surface Lgr5 expression": "inactive: 0.894"}
{"compound": "N#Cc1sc2c(C#N)c(N)sc2c1N", "cell-surface Lgr5 expression": "inactive: 1.29"}
{"compound": "COc1ccc(C2=Nn3c(nnc3-c3ccccc3F)SC2)cc1", "cell-surface Lgr5 expression": "inactive: 1.3"}
{"compound": "N#CCCNNC1=NS(=O)(=O)c2ccccc21", "cell-surface Lgr5 expression": "inactive: 1.16"}
{"compound": "FC(F)(F)c1ccc2c(c1)nc1ccccn12", "cell-surface Lgr5 expression": "inactive: 0.94"}
{"compound": "COc1cc(Br)c(Br)cc1N", "cell-surface Lgr5 expression": "inactive: 1.08"}
{"compound": "Oc1[nH]nc2nc(C(F)(F)F)cc(C(F)(F)F)c12", "cell-surface Lgr5 expression": "inactive: 1.36"}
{"compound": "COc1cc(CC2CC(CO)=NO2)cc2c1OCO2", "note": "(centres undefined)", "cell-surface Lgr5 expression": "inactive: 1.12"}
{"compound": "C(#Cc1ccc2oc3ccc(C#Cc4ccccc4)cc3c2c1)c1ccccc1", "cell-surface Lgr5 expression": "inactive: 1.12"}
{"compound": "CCOC(=O)c1c(C)n[n+]2c(C(=O)OCC)c(C)[n-]n12", "cell-surface Lgr5 expression": "inactive: 1.08"}
{"compound": "CCCCSc1nc(=O)cc(C)[nH]1", "cell-surface Lgr5 expression": "inactive: 1.04"}
{"compound": "COc1cc(C2C=C(c3ccc4c(c3)OCO4)Nc3ncnn32)cc(OC)c1OC", "note": "(centres undefined)", "cell-surface Lgr5 expression": "inactive: 1.15"}
{"compound": "Cc1nnc(SCC(N)=O)s1", "cell-surface Lgr5 expression": "inactive: 1.23"}
{"compound": "Brc1ccc(/C=N\\c2ccccn2)s1", "cell-surface Lgr5 expression": "inactive: 1.06"}
{"compound": "N#CC1=C(N)C(C#N)(C#N)C(c2cccs2)C2CCCC=C12", "note": "(centres undefined)", "cell-surface Lgr5 expression": "inactive: 1.49"}
{"compound": "Nc1ccc2oc(-c3cc(Cl)ccc3Cl)nc2c1", "cell-surface Lgr5 expression": "inactive: 1.36"}
{"compound": "CS(=O)(=O)N1CCc2cc([N+](=O)[O-])ccc21", "cell-surface Lgr5 expression": "inactive: 1.23"}
{"compound": "CN1CCN(/C(=N/O)c2nonc2N)CC1", "cell-surface Lgr5 expression": "inactive: 1.25"}
{"compound": "c1ccc(CN(/N=c2/cc(-c3ccccc3)n(-c3ccccc3)cn2)c2ccccc2)cc1", "cell-surface Lgr5 expression": "inactive: 1.12"}
{"compound": "C/C(=N/O)C1C(=O)c2ccccc2C1=O", "cell-surface Lgr5 expression": "inactive: 1.1"}
{"compound": "Clc1nc2nonc2nc1Nc1ccc(Br)cc1", "cell-surface Lgr5 expression": "inactive: 1.02"}
{"compound": "CC1=NN(c2ccccc2)C(=S)/C1=C/Nc1ccc([N+](=O)[O-])cc1[N+](=O)[O-]", "cell-surface Lgr5 expression": "inactive: 1.21"}
{"compound": "Oc1ccc(Br)cc1/C=N\\c1nccs1", "cell-surface Lgr5 expression": "inactive: 0.873"}
{"compound": "Fc1cccc(Cl)c1-c1nnc2ccc(C(F)(F)F)cn12", "cell-surface Lgr5 expression": "inactive: 1.31"}
{"compound": "CC1(C)CN=C(N2CCN(CC(O)COc3ccc(OCC(O)CN4CCN(C5=NCC(C)(C)S5)CC4)cc3)CC2)S1", "note": "(centres undefined)", "cell-surface Lgr5 expression": "inactive: 1.92"}
{"compound": "n1(nc(C)cc1C)C(C\\C(=C(\\Cl)Cl)Cl)=O", "cell-surface Lgr5 expression": "inactive: 1.19"}
{"compound": "Cc1nnc(SCC(=O)NC2CC3CCC2(C)C3(C)C)n1N", "note": "(centres undefined)", "cell-surface Lgr5 expression": "inactive: 1.05"}
{"compound": "N#Cc1c(SCC(N)=O)sc2c(O)cc(=O)[nH]c12", "cell-surface Lgr5 expression": "inactive: 1.37"}
{"compound": "CC1(C)Cc2c(sc3ncnc(N)c23)CO1", "cell-surface Lgr5 expression": "inactive: 1.11"}
{"compound": "O=[N+]([O-])c1ccc2[nH]c(=S)[nH]c2c1", "cell-surface Lgr5 expression": "inactive: 1.22"}
{"compound": "CCNc1nc(N2CCCC2)nc(N2CCCC2)n1", "cell-surface Lgr5 expression": "inactive: 1.6"}
{"compound": "CCNC(=S)NN1CCOCC1", "cell-surface Lgr5 expression": "inactive: 1.22"}
{"compound": "C/C(=N/O)c1ccc(Br)cc1", "cell-surface Lgr5 expression": "inactive: 1.05"}
{"compound": "Cc1c(C#N)c(N)n(CCCn2ccnc2)c1C", "cell-surface Lgr5 expression": "inactive: 1.26"}
{"compound": "Cc1nn2c3ccccc3nc2n1C", "cell-surface Lgr5 expression": "inactive: 1.03"}
{"compound": "O=C(/C=C\\[O][Na])c1ccc2c(c1)OCO2", "cell-surface Lgr5 expression": "inactive: 1.17"}
{"compound": "NC1=NC2(CCCCC2)N(c2ccc(F)cc2)C(N)=N1", "cell-surface Lgr5 expression": "inactive: 1.36"}
{"compound": "COc1cccc(Oc2nonc2N)c1", "cell-surface Lgr5 expression": "inactive: 1.28"}
{"compound": "O=C(O)CCNC1CCS(=O)(=O)C1", "note": "(centres undefined)", "cell-surface Lgr5 expression": "inactive: 1.28"}
{"compound": "Nc1nn(-c2ccccc2)c(=S)[nH]1", "cell-surface Lgr5 expression": "inactive: 0.997"}
{"compound": "Cc1cc(C(F)(F)F)n2ncnc2n1", "cell-surface Lgr5 expression": "inactive: 0.931"}
{"compound": "O=C(NCC1CCCO1)C(=O)N/N=C/c1c2ccccc2cc2ccccc12", "note": "(centres undefined)", "cell-surface Lgr5 expression": "inactive: 0.964"}
{"compound": "CC1CCc2c(sc(/N=C\\c3ccc(-c4cccs4)s3)c2C#N)C1", "note": "(centres undefined)", "cell-surface Lgr5 expression": "inactive: 1.16"}
{"compound": "Cc1sc2ncnc(SCC(=O)O)c2c1C", "cell-surface Lgr5 expression": "inactive: 1.25"}
